Measurements taken from patent publication US20250134809A1, “A PHYTOACTIVE ENCAPSULATED FORMULATION FOR NEURODEGENERATIVE DISEASES” (Gidaa Life Sciences Pvt. Ltd., priority 2022, published 2025).
“Also recorded” adds a separate entry of the source.

Key:
[1] = system: rat brain hippocampus and cerebral cortex; assay: Brain histopathology (Cresyl violet staining) of AlCl3 rats; type: in vivo; conditions: G3 (Donepezil orally)
[2] = system: Beta Amyloid, Gamma secretase, Beta secretase, APP; assay: Neuronal markers in brain tissue of AlCl3 rats; type: in vivo, rat; conditions: G3 (Donepezil orally)
LPO, SOD, GSH, GPx = assay: Oxidative stress / antioxidant markers in brain tissue of AlCl3 rats; type: in vivo, rat; conditions: G3 (Donepezil orally); for oxidative stress and antioxidant markers when compared to G2: p<0.05 & 0.01
TNF-α, IL-6, NFKB = assay: Inflammatory markers in brain tissue of AlCl3 rats; type: in vivo, rat; conditions: G3 (Donepezil orally)

Structure (SMILES): COc1cc2c(cc1OC)C(=O)C(CC1CCN(Cc3ccccc3)CC1)C2 (centres unmarked) [Donepezil]
- Glial nodule [1]: not observed
- NFTs (minimal to mild severity) in cerebral cortex, animals affected [1]: 06/06
- NFTs (minimal to mild severity) in hippocampus, animals affected [1]: 05/06
- Neuronal degeneration [1]: not observed
- mononuclear cell infiltration, animals affected [1]: not observed
- Gliosis, animals affected ([1]; minimal (01/06) to mild (01/06) severity): 02 out of 06
- neuronal markers levels compared to G2 ([2]; both brain regions): statistically significantly reduced and it is near to normal; also recorded: brought down
- B APP (neuronal marker, mean values) ([2]; cortex): 6.54
- B Amyloid (neuronal marker, mean values) ([2]; cortex): 328.72
- Secretase (neuronal marker, mean values) ([2]; cortex): 611.78
- γ Secretase (neuronal marker, mean values) ([2]; cortex): 869.29
- APP (neuronal marker, mean values) ([2]; hippocampus): 471.17
- B Amyloid (neuronal marker, mean values) ([2]; hippocampus): 257.9
- B Secretase (neuronal marker, mean values) ([2]; hippocampus): 7.57
- γ Secretase (neuronal marker, mean values) ([2]; hippocampus): 1110.57
- GPX (oxidative marker, mean values) (LPO, SOD, GSH, GPx; cortex tissue): 7.42
- GSH (oxidative marker, mean values) (LPO, SOD, GSH, GPx; cortex tissue): 26.33
- LPO (oxidative marker, mean values) (LPO, SOD, GSH, GPx; cortex tissue): 1.72
- SOD (oxidative marker, mean values) (LPO, SOD, GSH, GPx; cortex tissue): 0.46
- oxidative stress and antioxidant markers when compared to G2 (LPO, SOD, GSH, GPx; cortex): reduced oxidative stress and significantly increased antioxidant markers
- GPX (oxidative marker, mean values) (LPO, SOD, GSH, GPx; hippocampal tissue): 9.43
- GSH (oxidative marker, mean values) (LPO, SOD, GSH, GPx; hippocampal tissue): 8.27
- LPO (oxidative marker, mean values) (LPO, SOD, GSH, GPx; hippocampal tissue): 0.81
- SOD (oxidative marker, mean values) (LPO, SOD, GSH, GPx; hippocampal tissue): 0.26
- oxidative stress and antioxidant markers when compared to G2 (LPO, SOD, GSH, GPx; hippocampus): altered significantly
- IL-6 (inflammatory marker, mean values) (TNF-α, IL-6, NFKB; cortex tissue): 1692.33
- NFkB (inflammatory marker, mean values) (TNF-α, IL-6, NFKB; cortex tissue): 1.22
- TNFα (inflammatory marker, mean values) (TNF-α, IL-6, NFKB; cortex tissue): 19.55
- inflammatory markers levels when compared to G2 (TNF-α, IL-6, NFKB; hippocampus and cortex, p<0.05 and p<0.01): statistically significantly decreased
- IL-6 (inflammatory marker, mean values) (TNF-α, IL-6, NFKB; hippocampus tissue): 1676.83
- NFkB (inflammatory marker, mean values) (TNF-α, IL-6, NFKB; hippocampus tissue): 1.06
- TNFα (inflammatory marker, mean values) (TNF-α, IL-6, NFKB; hippocampus tissue): 24.06
